Results published in paper PMC9532426, “Autophagy induction promoted by m6A reader YTHDF3 through translation upregulation of FOXO3 mRNA”.
No constants are given. Whether binding was seen depends on the method and setting. In cells and extracts the contact can be indirect. Some entries that bind do so weakly or less than the wild type.

By UniProt entry, the sequences of proteins in these tests, tags left out.
UniProt P29341: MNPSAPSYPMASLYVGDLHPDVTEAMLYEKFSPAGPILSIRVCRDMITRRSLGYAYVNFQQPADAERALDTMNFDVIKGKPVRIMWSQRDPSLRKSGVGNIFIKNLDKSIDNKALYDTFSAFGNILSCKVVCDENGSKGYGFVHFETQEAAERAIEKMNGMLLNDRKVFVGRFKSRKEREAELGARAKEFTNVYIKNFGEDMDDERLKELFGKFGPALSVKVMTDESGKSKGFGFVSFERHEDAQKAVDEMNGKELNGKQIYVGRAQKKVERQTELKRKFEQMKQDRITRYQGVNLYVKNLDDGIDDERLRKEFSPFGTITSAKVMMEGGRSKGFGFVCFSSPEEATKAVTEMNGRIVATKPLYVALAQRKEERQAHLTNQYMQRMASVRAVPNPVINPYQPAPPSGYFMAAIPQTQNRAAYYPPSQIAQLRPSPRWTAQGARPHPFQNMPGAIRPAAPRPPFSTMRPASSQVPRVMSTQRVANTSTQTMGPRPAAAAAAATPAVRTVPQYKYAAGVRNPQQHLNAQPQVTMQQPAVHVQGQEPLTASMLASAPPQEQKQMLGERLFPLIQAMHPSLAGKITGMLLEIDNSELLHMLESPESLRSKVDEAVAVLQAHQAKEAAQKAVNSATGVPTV
UniProt P23116: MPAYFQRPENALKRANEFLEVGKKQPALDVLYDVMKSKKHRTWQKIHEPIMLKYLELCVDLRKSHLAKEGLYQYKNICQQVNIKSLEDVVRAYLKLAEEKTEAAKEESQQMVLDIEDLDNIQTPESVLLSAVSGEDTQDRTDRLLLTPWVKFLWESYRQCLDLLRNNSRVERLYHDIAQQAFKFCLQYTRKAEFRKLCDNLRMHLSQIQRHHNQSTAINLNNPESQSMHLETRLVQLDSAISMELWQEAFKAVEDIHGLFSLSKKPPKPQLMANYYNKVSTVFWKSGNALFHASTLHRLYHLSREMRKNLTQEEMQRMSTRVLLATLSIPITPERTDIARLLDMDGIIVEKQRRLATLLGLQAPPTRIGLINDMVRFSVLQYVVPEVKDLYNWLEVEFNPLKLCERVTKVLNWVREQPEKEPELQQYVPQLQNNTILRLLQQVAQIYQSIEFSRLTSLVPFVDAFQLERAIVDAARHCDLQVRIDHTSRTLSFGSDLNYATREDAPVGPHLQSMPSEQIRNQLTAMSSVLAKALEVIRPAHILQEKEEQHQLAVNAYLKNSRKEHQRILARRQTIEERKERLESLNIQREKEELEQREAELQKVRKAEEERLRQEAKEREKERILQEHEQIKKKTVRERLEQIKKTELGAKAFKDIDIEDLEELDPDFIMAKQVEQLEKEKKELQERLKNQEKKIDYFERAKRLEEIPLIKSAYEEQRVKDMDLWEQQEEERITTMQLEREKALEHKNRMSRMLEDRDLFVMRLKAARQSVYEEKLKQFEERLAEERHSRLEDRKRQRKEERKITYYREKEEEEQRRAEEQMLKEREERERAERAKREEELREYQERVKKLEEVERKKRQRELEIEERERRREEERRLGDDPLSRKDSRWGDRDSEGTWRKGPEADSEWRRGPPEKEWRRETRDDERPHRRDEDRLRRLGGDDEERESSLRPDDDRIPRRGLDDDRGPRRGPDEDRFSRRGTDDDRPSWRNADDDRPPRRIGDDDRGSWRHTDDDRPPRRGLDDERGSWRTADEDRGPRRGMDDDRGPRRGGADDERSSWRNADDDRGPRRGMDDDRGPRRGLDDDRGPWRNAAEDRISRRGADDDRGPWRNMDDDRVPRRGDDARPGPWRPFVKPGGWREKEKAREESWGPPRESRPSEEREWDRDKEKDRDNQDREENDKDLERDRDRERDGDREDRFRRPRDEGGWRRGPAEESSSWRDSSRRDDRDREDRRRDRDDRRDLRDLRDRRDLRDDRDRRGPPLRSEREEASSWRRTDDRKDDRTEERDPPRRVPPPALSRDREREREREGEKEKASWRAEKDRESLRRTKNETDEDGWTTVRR
UniProt Q8BGD9: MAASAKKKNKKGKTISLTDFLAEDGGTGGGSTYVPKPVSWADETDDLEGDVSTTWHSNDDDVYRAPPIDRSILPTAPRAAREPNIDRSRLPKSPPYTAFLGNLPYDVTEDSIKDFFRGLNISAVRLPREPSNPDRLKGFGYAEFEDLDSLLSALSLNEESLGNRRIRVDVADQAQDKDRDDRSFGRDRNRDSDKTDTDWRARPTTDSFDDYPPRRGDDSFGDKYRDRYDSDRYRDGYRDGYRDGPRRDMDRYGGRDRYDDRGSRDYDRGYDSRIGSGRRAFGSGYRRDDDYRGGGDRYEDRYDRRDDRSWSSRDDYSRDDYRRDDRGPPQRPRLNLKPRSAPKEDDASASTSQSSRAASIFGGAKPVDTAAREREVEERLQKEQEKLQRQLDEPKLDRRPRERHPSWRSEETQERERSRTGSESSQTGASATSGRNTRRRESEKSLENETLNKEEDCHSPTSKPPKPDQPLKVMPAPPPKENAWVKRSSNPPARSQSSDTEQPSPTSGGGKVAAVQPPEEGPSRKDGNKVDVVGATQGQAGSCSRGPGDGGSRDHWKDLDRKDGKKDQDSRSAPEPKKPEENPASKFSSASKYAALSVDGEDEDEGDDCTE

T1: YTHDF3 (mouse (endogenous in MEFs)) (UniProt Q8BYK6)
T1 sequence: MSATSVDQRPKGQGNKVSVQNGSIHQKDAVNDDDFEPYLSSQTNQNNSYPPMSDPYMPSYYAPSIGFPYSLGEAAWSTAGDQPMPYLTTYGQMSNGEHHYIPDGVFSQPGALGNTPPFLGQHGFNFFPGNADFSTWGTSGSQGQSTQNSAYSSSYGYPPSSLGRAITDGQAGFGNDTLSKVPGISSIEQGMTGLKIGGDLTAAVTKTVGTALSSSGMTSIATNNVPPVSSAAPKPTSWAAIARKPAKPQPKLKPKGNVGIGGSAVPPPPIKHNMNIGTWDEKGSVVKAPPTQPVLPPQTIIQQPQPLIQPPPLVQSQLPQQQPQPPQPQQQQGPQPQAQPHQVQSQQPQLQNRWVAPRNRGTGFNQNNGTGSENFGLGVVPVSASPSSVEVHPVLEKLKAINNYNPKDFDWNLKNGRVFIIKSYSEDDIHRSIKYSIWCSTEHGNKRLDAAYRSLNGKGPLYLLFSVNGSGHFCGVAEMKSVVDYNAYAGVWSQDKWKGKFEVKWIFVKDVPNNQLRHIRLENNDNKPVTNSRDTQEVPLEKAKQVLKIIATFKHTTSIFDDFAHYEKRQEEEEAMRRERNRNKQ

T2: eIF4G2 (mouse (endogenous in MEFs)) (UniProt Q62448)
T2 sequence: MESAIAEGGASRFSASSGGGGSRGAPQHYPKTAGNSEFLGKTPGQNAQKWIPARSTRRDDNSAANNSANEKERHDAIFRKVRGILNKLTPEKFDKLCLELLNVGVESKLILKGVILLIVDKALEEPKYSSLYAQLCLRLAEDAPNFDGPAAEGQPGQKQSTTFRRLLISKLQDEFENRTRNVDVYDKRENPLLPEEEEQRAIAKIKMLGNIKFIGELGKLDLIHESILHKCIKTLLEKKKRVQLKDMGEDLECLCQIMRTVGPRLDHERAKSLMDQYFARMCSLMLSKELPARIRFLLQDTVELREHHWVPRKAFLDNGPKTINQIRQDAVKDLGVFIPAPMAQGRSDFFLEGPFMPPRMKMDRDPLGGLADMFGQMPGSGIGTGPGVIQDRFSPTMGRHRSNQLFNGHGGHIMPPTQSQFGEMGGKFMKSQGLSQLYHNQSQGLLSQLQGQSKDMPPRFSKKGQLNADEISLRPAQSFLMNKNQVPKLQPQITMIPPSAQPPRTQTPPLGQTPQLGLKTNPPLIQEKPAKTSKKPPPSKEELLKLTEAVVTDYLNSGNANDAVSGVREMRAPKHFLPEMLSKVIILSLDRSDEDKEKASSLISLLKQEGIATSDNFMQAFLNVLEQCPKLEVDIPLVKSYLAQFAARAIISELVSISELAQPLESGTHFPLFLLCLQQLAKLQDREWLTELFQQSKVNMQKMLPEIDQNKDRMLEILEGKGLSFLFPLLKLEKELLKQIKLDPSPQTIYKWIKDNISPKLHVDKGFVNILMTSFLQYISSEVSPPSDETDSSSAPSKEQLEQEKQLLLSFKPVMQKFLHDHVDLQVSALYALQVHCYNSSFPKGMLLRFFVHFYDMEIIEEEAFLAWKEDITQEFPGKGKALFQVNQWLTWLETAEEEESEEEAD

B1: YTHDF3 (protein, UniProt Q8BYK6-1 1-585)
chain: MSATSVDQRPKGQGNKVSVQNGSIHQKDAVNDDDFEPYLSSQTNQNNSYPPMSDPYMPSYYAPSIGFPYSLGEAAWSTAGDQPMPYLTTYGQMSNGEHHYIPDGVFSQPGALGNTPPFLGQHGFNFFPGNADFSTWGTSGSQGQSTQNSAYSSSYGYPPSSLGRAITDGQAGFGNDTLSKVPGISSIEQGMTGLKIGGDLTAAVTKTVGTALSSSGMTSIATNNVPPVSSAAPKPTSWAAIARKPAKPQPKLKPKGNVGIGGSAVPPPPIKHNMNIGTWDEKGSVVKAPPTQPVLPPQTIIQQPQPLIQPPPLVQSQLPQQQPQPPQPQQQQGPQPQAQPHQVQSQQPQLQNRWVAPRNRGTGFNQNNGTGSENFGLGVVPVSASPSSVEVHPVLEKLKAINNYNPKDFDWNLKNGRVFIIKSYSEDDIHRSIKYSIWCSTEHGNKRLDAAYRSLNGKGPLYLLFSVNGSGHFCGVAEMKSVVDYNAYAGVWSQDKWKGKFEVKWIFVKDVPNNQLRHIRLENNDNKPVTNSRDTQEVPLEKAKQVLKIIATFKHTTSIFDDFAHYEKRQEEEEAMRRERNRNKQ

Assays:
[1] = molecular target: T1, YTHDF3 (mouse (endogenous in MEFs)); test: co-IP; anti-YTHDF3 antibody (sc-377119) crosslinked to Protein A/G Plus Agarose, lysates of shNS and shYTHDF3 MEFs with or without nutrient deprivation, with or without RNase A added to lysates; immunoblot
[2] = molecular target: T2, eIF4G2 (mouse (endogenous in MEFs)); test: co-IP; PABP1- or eIF4G2-immunoprecipitated lysates from MEFs with or without nutrient deprivation; immunoblot for YTHDF3
[3] = molecular target: PABP1 (mouse (endogenous in MEFs)) (UniProt P29341); test: as above

Row | Molecule | binding [1] | binding [2] | binding [3]
1 | eIF3a (from UniProt P23116 1-1344) | binds | – | –
2 | eIF4B (from UniProt Q8BGD9 1-611) | binds | – | –
3 | B1 | – | binds | binds
